These are yes or no findings as the source states them, for the method shown. Some binding calls cover weakened binding; strength is not graded here. Sequences can lack the tags named with a protein.
Assays:
His-tagged mArfN37 [1] = target: T1, His-tagged mArfN37 (mouse); experiment: SPR, His-mArfN37 captured by anti-His antibody
T1 construct: Captured on the SPR chip through a covalently attached Tetra-His antibody; also called His-mArfN37; His-tagged mArf37; not shown: thrombin-cleavable poly-His tag
T1 chain: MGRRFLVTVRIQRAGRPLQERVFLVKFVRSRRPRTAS

His-tagged mArfN37 [2] = target: T1, His-tagged mArfN37; experiment: SPR (Biacore), His-tagged mArfN37 captured by anti-His antibody, Hdm2 peptide as analyte, reference cell subtracted
Procedure: Surface Plasmon Resonance. Binding studies were performed using a Biacore 3000 surface plasmon resonance (SPR) instrument (Biacore, Inc.). A Tetra-His™ Antibody (Qiagen, Inc.; Cat. #34670) was covalently attached to a carboxymethylated gold surface (C-1 chip; Biacore, Inc.). The carboxymethyl groups on the surface were activated with N-ethyl-N-(3-dimethylaminopropyl) carbodiimide (EDC) and N-hydroxysuccinimide (NHS) and the antibody was attached at pH 7.4 in 20 mM sodium phosphate buffer, 150 mM NaCl (PBS). Reactive sites remaining on the surface were blocked by reaction with ethanolamine. The His-tagged ligand was attached to the antibody by injecting a […] solution of the ligand in 10 mM HEPES, 150 mM NaCl, pH 7.4 (HBS-N buffer, Biacore) at a flow rate of 10 μL/Min through the flow cell. A reference cell was prepared similarly except that no His-tagged ligand was added. Binding was measured by flowing the non-His-tagged analyte through the reference and ligand-containing flow cells in sequence. Prior to injection of ligands, the chip surfaces were equilibrated in HBS-N buffer. Changes in the SPR response due to solvent differences and the injection process were monitored by injection of HBS-N buffer alone. Regeneration of the chip surface to remove bound analyte and ligand was accomplished by two 100 μL injections of 10 mM glycine, pH 2.0 through both flow cells. […]

[3] = target: T2, mArfN37 (N-terminal fragment of mouse p19Arf, residues 1-37), His tag cleaved (mouse); experiment: CD-based binding assay
T2 sequence: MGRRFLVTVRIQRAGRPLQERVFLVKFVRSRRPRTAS

Measured: binding

VYQVTVYQAGESDTD (peptide amide; N-terminal acetylation (general synthesis method)) [Hdm2 peptide of the H2 segment (residues 275-289 of SEQ ID NO:8)]
binds: His-tagged mArfN37 [1] | His-tagged mArfN37 [2] | [3]

Source: patent US20040248198A1 (ST JUDE CHILDREN S RESEARCH HOSPITAL, published 2004)
